## Cleaved PARP after 72 h of treatment

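Human melanoma cell lines in 1,536-well plates were treated with two drugs together for 72 h, then fixed, stained and imaged. Each value is the cleaved-PARP-positive fraction of nuclei relative to DMSO-treated wells, in %, so that 100 equals the control and higher values mean more apoptosis. Concentrations were fixed for each drug; these are the higher of two levels. The file gives one value for each pair and line, without errors, so small differences may be noise. Basal and induced levels differ widely between cell lines.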
An unselected part of the screen is shown.
A dash means that no value is listed here.

All values are for the listed drug together with MK-1775 (0.1 µM): C=CCn1c(=O)c2cnc(Nc3ccc(N4CCN(C)CC4)cc3)nc2n1-c1cccc(C(C)(C)O)n1

Second drug	LOX IMVI	COLO 829	IPC-298	A2058	MeWo	COLO 792	C32	RPMI-7951	SK-MEL-30	WM1716	COLO 800	A375	501mel	SK-MEL-2	RVH-421
Cn1nnc2c(C(N)=O)ncn2c1=O at 10 µM	308	149	93.5	928	87.3	149	302	107	278	404	180	-	-	77.5	149
CCN(CC)CCCCNc1ncc2cc(-c3cc(OC)cc(OC)c3)c(NC(=O)NC(C)(C)C)nc2n1 at 0.5 µM	146	142	66.6	191	137	235	85.0	61.0	210	80.4	76.3	135	157	94.7	129
Cc1ccc(Nc2nccc(N(C)c3ccc4c(C)n(C)nc4c3)n2)cc1S(N)(=O)=O at 2 µM	416	140	97.4	119	70.6	248	126	200	95.3	27.8	158	-	-	63.3	79.8
C[C@]12O[C@H](C[C@]1(O)CO)n1c3ccccc3c3c4c(c5c6ccccc6n2c5c31)CNC4=O at 0.02 µM	82.9	221	60.0	236	144	224	63.3	151	267	270	85.5	-	-	134	61.4
Nc1ncn([C@H]2C[C@H](O)[C@@H](CO)O2)c(=O)n1 at 0.5 µM	29.8	124	218	423	176	243	47.2	190	238	185	96.6	-	-	71.4	439
O=C(/C=C/c1cccnc1)NCCCCC1CCN(C(=O)c2ccccc2)CC1 at 0.05 µM	215	551	1370	157	100	617	78.1	61.2	91.8	75.1	187	-	-	1190	317
NC(=O)c1ccc(N(C(N)=O)c2c(F)cccc2F)nc1-c1ccc(F)cc1F at 2 µM	39.5	82.1	380	173	143	54.2	136	111	208	86.8	114	-	-	119	67.3
Nc1nc(F)nc2c1ncn2[C@@H]1O[C@H](CO)[C@@H](O)[C@@H]1O at 1 µM	79.7	183	121	240	262	207	106	154	1220	161	263	-	-	2210	79.8
O=S(=O)(c1ccccc1)N(CC(F)(F)F)c1ccc(C(O)(C(F)(F)F)C(F)(F)F)cc1 at 7 µM	118	90.6	157	169	106	166	102	145	83.3	78.8	40.7	341	317	122	85.5
CNC(=O)c1cc(Oc2ccc(NC(=O)Nc3ccc(Cl)c(C(F)(F)F)c3)cc2)ccn1 at 2 µM	135	77.8	28.0	107	143	42.8	106	306	185	74.0	140	-	-	101	87.9
Oc1cc(-c2nc(-c3ccccc3)[nH]c2-c2ccncc2)ccc1Cl at 1 µM	106	190	66.4	377	88.5	113	241	237	137	82.5	78.8	238	49.3	751	206
CC1(C)NC(=O)N(c2ccc([N+](=O)[O-])c(C(F)(F)F)c2)C1=O at 5 µM	105	72.9	91.0	146	109	192	211	66.3	180	73.7	66.0	-	-	81.4	54.0
O=C(Nc1cc(C(F)(F)F)cc(C(F)(F)F)c1)c1cc(Cl)ccc1O at 0.08 µM	185	98.0	149	147	146	124	110	117	131	97.4	139	-	-	62.6	149
O=C(Oc1ccc([N+](=O)[O-])cc1)N1CCC(C(O)(c2ccc3c(c2)OCO3)c2ccc3c(c2)OCO3)CC1 at 5 µM	118	239	113	186	119	107	98.8	88.5	262	211	67.5	318	219	114	292
Cc1cc(Nc2cc(N3CCN(C)CC3)nc(/C=C/c3ccccc3)n2)n[nH]1 at 0.2 µM	220	207	45.7	260	147	137	90.4	146	153	289	256	-	-	101	243
CCCCCCCCCCCC1=C(O)C(=O)C=C(O)C1=O at 6 µM	130	292	340	158	165	275	96.2	90.1	122	100	143	129	263	91.3	72.3
CCN(CC)CCNC(=O)c1c(C)[nH]c(/C=C2\C(=O)Nc3ccc(F)cc32)c1C at 2 µM	206	115	68.1	240	181	193	121	191	189	201	96.9	-	-	23.7	118
Cn1c(=O)n(-c2ccc(C(C)(C)C#N)cc2)c2c3cc(-c4cnc5ccccc5c4)ccc3ncc21 at 0.02 µM	118	59.5	119	246	439	67.7	316	188	261	26.9	207	-	-	206	77.1
CC(C)C[C@H](NC(=O)[C@H](Cc1ccccc1)NC(=O)c1cnccn1)B(O)O at 0.005 µM	198	3850	998	2970	2470	274	1320	743	553	5570	94.8	-	-	165	697
N.N.[Cl][Pt][Cl] at 8 µM	145	191	147	187	173	246	198	69.5	146	330	214	-	-	-	42.3
COc1cc2c(Oc3ccc4[nH]c(C)cc4c3F)ncnc2cc1OCCCN1CCCC1 at 2 µM	427	107	45.2	207	124	220	229	307	460	127	206	-	-	116	42.6
CC(C)CCN1c2nc(Nc3cc(F)c(O)c(F)c3)ncc2N(C)C(=O)C1C (configuration not stated) at 1 µM	119	120	60.0	281	87.1	104	99.1	83.3	111	52.2	208	346	193	354	261
O=C(O)[C@@H]1[O][Sb](=[O])([O][Sb]2(=[O])[O][C@H]([C@H](O)CO)[C@H](O)[C@H](C(=O)O)[O]2)[O][C@H]([C@H](O)CO)[C@@H]1O (some centres not stated) at 10 µM	59.7	135	275	198	210	232	243	103	234	210	112	-	-	154	22.6
COc1ccc2c(c1)CCC1C2CCC2(C)C(NCCCCCCN3C(=O)C=CC3=O)CCC12 (configuration not stated) at 2 µM	122	41.3	105	178	209	178	174	245	74.3	111	215	274	257	171	177
CN(C)S(=O)(=O)c1ccc2c(c1)/C(=C/c1cc3c([nH]1)CCCC3)C(=O)N2 at 2 µM	68.1	30.9	66.1	178	238	156	93.7	146	180	29.2	177	-	-	128	59.1
CCCCCCCCCCCCCCCCCCOP(=O)([O-])OC1CC[N+](C)(C)CC1 at 2 µM	127	122	188	246	150	199	210	138	176	71.1	112	-	-	231	94.3
N#CC[C@H](C1CCCC1)n1cc(-c2ncnc3[nH]ccc23)cn1 at 5 µM	216	204	85.4	53.4	162	191	224	135	139	176	127	-	-	-	37.1
O=C(O)c1ccc2c(c1)nc(Nc1cccc(Cl)c1)c1ccncc12 at 2 µM	63.5	158	218	239	206	263	86.3	130	412	266	179	-	-	114	236
O=C(O)C(=O)Nc1sc2c(c1C(=O)O)CCNC2 at 8.33 µM	336	121	48.8	149	145	319	210	208	273	101	51.0	146	114	108	180
C=CCNC1=C2C[C@@H](C)C[C@H](OC)[C@H](O)[C@@H](C)/C=C(\C)[C@H](OC(N)=O)[C@@H](OC)/C=C\C=C(/C)C(=O)NC(=CC1=O)C2=O at 0.01 µM	39.8	124	99.1	247	226	90.2	2720	238	191	23.6	115	-	-	476	335
O=C(Nc1cccc(Cl)c1)Nc1ncc(CCNc2ncnc3ccsc23)s1 at 0.004 µM	64.0	176	91.5	221	213	190	469	234	238	316	539	-	-	111	81.4
Cn1cnc2c(F)c(Nc3ccc(Br)cc3Cl)c(C(=O)NOCCO)cc21 at 0.075 µM	171	183	147	248	147	172	225	40.7	173	205	64.9	-	-	384	40.7
Cc1cc([N+](=O)[O-])ccc1NS(=O)(=O)c1cc(Cl)ccc1Cl at 5 µM	114	68.2	69.7	176	174	97.0	108	74.7	184	72.3	67.5	128	-	109	132
COc1cc(N2CCC(N3CCN(C)CC3)CC2)ccc1Nc1ncc(Cl)c(Nc2ccccc2S(=O)(=O)C(C)C)n1 at 0.4 µM	158	48.8	62.7	417	195	110	347	140	95.7	60.8	221	153	152	89.1	53.2
COc1cc(Nc2ncc(F)c(Nc3ccc4c(n3)NC(=O)C(C)(C)O4)n2)cc(OC)c1OC at 2 µM	494	134	32.4	156	78.7	371	68.4	325	76.7	289	204	-	-	66.2	33.9
C/C(O)=C(\C#N)C(=O)Nc1cc(Br)ccc1Br at 10 µM	88.9	220	190	144	87.5	184	109	101	182	131	74.9	230	-	208	150

The last 2 entries again:

Second drug,LOX IMVI,COLO 829,IPC-298,A2058,MeWo,COLO 792,C32,RPMI-7951,SK-MEL-30,WM1716,COLO 800,A375,501mel,SK-MEL-2,RVH-421
COc1cc(Nc2ncc(F)c(Nc3ccc4c(n3)NC(=O)C(C)(C)O4)n2)cc(OC)c1OC at 2 µM,494,134,32.4,156,78.7,371,68.4,325,76.7,289,204,-,-,66.2,33.9
C/C(O)=C(\C#N)C(=O)Nc1cc(Br)ccc1Br at 10 µM,88.9,220,190,144,87.5,184,109,101,182,131,74.9,230,-,208,150

Data from the primary screen of doi:10.1371/journal.pone.0140310, rounded.